Experimental data as given in the supplement of paper PMC10849652.
The list shows a part of the results.

By UniProt entry, the sequences of proteins in these tests, tags left out. Where a name states a change or a piece, a line headed by the entry shows the natural chain unless it says otherwise.
UniProt Q9NS69: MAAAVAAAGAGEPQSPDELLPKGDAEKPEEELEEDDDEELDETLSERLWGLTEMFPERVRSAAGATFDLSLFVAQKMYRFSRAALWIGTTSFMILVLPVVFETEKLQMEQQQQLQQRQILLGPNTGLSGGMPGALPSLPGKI
UniProt Q9NXH9: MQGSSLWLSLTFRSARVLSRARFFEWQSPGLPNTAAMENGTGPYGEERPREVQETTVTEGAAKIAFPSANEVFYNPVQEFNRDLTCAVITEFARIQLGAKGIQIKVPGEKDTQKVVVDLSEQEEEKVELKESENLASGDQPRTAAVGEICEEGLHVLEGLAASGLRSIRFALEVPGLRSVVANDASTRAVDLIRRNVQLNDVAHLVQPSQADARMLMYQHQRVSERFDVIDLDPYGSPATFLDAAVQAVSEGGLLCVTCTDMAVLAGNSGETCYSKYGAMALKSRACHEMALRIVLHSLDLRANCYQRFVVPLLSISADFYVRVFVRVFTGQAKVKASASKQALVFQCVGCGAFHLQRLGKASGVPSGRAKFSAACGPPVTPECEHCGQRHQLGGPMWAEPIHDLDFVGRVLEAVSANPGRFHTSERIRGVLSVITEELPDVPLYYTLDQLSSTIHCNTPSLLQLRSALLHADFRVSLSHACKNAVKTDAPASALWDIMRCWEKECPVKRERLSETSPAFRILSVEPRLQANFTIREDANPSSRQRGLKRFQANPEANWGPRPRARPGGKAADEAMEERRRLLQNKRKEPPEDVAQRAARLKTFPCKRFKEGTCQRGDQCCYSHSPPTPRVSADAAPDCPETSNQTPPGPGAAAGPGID
UniProt Q15785: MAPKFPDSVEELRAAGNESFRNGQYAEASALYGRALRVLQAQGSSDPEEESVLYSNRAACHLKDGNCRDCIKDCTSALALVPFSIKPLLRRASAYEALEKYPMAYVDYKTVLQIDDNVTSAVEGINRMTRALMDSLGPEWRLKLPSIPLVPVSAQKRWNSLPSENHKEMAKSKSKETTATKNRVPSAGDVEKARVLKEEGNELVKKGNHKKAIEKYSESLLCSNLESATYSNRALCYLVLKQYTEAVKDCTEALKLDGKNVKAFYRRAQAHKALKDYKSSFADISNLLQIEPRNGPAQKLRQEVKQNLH
UniProt Q8WVT3: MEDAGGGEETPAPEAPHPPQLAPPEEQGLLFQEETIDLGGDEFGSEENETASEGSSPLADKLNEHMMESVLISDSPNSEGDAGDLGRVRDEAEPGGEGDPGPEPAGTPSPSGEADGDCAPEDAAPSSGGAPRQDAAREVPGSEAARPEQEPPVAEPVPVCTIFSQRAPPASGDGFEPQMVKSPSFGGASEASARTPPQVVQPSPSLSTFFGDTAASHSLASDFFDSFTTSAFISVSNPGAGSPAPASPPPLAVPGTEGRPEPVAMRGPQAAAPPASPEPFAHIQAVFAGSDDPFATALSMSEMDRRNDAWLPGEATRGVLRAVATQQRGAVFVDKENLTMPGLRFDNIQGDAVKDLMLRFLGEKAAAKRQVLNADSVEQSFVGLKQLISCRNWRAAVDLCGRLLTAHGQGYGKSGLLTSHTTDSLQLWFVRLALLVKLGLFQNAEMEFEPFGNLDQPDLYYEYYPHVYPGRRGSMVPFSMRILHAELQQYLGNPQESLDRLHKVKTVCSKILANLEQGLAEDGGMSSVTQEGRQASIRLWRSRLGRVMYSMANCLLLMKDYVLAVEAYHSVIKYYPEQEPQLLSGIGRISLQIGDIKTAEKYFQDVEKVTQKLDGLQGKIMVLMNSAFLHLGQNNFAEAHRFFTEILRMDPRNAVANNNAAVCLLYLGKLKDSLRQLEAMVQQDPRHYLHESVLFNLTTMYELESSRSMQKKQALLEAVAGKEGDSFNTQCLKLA
UniProt P13693: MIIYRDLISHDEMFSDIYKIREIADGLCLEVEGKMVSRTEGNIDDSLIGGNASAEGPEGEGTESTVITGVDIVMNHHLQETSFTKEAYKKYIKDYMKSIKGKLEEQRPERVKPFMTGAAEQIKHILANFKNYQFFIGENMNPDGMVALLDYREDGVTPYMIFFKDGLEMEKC
UniProt O43715: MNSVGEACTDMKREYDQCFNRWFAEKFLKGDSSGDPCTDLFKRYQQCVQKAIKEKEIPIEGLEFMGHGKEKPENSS
UniProt Q12933: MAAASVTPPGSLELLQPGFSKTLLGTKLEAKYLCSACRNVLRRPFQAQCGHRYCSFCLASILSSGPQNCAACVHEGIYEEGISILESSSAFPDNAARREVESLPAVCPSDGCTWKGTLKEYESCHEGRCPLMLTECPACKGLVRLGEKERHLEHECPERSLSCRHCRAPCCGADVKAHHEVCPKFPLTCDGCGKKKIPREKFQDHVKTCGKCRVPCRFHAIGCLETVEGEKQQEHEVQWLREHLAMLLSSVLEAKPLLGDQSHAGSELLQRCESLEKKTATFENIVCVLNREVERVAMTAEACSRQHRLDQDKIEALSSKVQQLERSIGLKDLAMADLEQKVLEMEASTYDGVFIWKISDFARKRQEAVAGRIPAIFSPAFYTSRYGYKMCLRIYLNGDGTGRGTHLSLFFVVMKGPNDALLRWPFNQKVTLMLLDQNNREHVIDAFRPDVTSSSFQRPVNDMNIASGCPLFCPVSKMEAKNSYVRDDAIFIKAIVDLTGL
UniProt Q9NXH8: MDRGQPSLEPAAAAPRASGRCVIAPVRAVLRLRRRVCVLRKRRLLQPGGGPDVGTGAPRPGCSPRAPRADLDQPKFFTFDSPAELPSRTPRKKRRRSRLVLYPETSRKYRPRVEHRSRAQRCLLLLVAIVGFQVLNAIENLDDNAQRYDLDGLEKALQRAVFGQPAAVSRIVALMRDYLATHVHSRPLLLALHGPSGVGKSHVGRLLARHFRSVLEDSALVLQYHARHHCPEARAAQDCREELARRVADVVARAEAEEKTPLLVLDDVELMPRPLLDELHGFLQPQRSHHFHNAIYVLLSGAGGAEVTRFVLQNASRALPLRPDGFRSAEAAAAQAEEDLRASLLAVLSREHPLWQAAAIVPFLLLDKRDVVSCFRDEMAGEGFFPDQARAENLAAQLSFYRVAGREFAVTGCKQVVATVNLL
UniProt Q96Q11: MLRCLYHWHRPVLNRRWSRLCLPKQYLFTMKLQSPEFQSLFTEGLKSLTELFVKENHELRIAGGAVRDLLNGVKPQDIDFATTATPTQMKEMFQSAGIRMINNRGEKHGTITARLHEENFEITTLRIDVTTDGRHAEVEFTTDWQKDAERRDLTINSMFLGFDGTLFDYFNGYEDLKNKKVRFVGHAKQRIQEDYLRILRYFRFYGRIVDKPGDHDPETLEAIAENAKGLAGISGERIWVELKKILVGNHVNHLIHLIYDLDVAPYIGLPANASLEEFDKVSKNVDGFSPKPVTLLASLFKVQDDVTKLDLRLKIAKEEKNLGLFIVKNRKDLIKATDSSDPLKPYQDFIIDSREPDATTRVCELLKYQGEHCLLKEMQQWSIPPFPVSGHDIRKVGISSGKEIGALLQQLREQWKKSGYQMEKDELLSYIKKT
UniProt Q9Y3Q8: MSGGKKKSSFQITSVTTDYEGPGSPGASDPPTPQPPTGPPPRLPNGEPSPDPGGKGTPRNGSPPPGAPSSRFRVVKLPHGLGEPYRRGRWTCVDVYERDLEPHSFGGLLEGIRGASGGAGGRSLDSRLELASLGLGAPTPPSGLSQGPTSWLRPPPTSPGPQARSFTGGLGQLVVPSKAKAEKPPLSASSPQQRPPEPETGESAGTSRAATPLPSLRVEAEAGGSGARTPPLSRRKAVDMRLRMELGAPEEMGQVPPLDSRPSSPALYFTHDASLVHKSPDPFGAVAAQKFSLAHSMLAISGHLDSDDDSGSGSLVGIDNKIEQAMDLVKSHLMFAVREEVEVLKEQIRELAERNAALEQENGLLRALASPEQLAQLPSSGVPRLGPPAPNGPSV
UniProt O14545: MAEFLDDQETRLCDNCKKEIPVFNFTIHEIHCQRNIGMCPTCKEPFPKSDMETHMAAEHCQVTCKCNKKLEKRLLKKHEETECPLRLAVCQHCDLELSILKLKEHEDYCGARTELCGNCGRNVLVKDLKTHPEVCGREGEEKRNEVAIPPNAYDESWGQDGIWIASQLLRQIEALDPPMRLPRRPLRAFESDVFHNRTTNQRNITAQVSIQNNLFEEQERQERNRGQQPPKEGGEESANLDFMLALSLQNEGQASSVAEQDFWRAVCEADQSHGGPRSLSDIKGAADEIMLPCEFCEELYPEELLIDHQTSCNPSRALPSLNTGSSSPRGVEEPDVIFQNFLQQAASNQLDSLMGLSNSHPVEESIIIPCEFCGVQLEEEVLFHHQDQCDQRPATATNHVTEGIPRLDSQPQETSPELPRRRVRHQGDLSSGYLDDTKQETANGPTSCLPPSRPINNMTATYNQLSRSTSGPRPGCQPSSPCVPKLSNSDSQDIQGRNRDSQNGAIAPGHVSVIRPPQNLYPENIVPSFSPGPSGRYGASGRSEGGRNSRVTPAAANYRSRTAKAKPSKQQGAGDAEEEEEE
UniProt P48553, whole entry, looked up: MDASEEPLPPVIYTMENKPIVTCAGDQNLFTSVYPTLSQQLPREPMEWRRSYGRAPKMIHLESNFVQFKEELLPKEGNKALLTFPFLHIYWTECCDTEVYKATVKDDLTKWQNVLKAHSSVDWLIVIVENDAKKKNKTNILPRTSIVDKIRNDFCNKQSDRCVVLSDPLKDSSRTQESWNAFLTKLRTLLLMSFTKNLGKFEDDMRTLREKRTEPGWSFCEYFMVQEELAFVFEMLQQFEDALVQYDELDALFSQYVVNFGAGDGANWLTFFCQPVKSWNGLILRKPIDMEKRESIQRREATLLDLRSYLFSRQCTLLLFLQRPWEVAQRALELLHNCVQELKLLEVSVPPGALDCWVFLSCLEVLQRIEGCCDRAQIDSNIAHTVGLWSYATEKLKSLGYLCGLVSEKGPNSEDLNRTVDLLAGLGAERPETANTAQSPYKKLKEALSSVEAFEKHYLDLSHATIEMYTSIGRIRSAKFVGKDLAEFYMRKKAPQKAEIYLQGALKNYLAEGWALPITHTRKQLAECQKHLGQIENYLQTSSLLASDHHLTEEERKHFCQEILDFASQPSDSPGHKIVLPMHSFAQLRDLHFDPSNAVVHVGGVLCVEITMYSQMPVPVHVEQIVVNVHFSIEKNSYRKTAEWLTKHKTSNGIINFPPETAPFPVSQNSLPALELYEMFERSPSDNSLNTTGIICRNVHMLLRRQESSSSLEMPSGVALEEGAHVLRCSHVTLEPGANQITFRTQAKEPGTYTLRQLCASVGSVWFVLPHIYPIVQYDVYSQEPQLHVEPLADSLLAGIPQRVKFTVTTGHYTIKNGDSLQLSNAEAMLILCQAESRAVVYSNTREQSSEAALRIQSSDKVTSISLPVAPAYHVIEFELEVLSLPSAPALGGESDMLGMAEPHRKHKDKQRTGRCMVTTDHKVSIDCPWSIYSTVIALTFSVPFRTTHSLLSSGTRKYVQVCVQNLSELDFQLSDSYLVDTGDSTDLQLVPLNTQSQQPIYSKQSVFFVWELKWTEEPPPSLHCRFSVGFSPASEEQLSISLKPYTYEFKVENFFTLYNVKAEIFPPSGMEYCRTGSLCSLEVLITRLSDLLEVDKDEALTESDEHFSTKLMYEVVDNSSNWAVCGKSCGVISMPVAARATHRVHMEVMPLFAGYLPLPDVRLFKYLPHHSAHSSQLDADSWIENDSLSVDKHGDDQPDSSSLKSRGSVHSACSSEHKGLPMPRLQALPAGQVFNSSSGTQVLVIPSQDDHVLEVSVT
UniProt Q14258, whole entry, looked up: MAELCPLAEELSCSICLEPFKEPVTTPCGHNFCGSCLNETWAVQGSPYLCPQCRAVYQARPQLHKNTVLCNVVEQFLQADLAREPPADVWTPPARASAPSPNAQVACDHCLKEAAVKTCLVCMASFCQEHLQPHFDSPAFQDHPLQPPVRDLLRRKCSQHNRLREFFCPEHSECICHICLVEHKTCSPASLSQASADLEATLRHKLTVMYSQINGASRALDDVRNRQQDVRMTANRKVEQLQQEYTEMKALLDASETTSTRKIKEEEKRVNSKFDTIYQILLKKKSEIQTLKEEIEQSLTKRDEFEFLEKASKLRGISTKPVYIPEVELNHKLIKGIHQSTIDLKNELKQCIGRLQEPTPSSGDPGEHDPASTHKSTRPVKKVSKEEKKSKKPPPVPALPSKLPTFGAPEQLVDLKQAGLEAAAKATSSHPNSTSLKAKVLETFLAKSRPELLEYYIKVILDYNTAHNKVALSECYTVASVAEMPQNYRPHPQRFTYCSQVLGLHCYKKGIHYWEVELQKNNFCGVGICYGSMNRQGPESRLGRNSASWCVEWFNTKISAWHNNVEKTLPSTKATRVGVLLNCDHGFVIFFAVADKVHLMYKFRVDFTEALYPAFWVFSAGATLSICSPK
UniProt Q9BQ61: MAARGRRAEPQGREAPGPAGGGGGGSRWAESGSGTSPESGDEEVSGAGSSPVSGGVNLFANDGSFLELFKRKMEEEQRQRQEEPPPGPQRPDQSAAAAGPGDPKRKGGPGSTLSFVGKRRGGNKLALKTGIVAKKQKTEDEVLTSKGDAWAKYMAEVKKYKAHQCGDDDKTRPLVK

Assays:
Assay in all cases: log2 fold change, soluble protein after heating vs DMSO (PISA); higher = thermal stabilisation; K562 cells, 10 uM, 30 min; active = over 0.2 and 3.5 SD of the protein, either way, in both replicates (recomputed)
[1] = compound: CN1CCN(CCOc2cc(OC3CCOCC3)c3c(Nc4c(Cl)ccc5c4OCO5)ncnc3c2)CC1 [saracatinib]
How it was run: (§1)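 K562 cells at 2×10^6 cells/mL were treated with 10 μM compound for 30 min. Aliquots were heated for 3 min across 48°C-58°C, pooled, and extracted in PBS with 0.5% NP-40 at 4°C; soluble protein was the supernatant after 21,000xg for 90 min. Soluble protein was quantified by TMTpro 16plex LC-MS/MS with channel sums equalised, and reported as log2 fold change in thermal stability against DMSO controls, with values from duplicates.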

[2] = compound: CN1CCN(c2nc(C3=C(c4c[nH]c5ccccc45)C(=O)NC3=O)c3ccccc3n2)CC1 [sotrastaurin]
How it was run: as §1

[3] = compound: CN1CC[C@H](c2c(O)cc(O)c3c(=O)cc(-c4ccccc4Cl)oc23)[C@H](O)C1 [alvocidib]
How it was run: as §1

[4] = compound: CN1CCc2c(c3ccccc3n2Cc2ccc(C(=O)NO)cc2)C1 [Tubastatin A]
How it was run: as §1

[5] = compound: CNC(=O)C1=CC=CC=C1NC2=NC(=NC=C2Cl)NC3=C(C=C(C=C3)N4CCOCC4)OC
How it was run: as §1

[6] = compound: CNC(=O)c1ccc(Nc2ncc(C(F)(F)F)c(NCc3nccnc3N(C)S(C)(=O)=O)n2)cc1 [defactinib]
How it was run: as §1

[7] = compound: CNCc1ccc(-c2[nH]c3cc(F)cc4c3c2CCNC4=O)cc1 [rucaparib]
How it was run: as §1

[8] = compound: CNc1nc(-c2ccc3c(N)n[nH]c3c2)cc(N2C[C@@H](C(=O)NC3CCCCC3)CC[C@H]2C)n1
How it was run: as §1

[9] = compound: COC(=O)N[C@@H](C)CNc1nccc(-c2cn(C(C)C)nc2-c2cc(Cl)cc(NS(C)(=O)=O)c2F)n1 [encorafenib]
How it was run: as §1

[10] = compound: COC(=O)[C@H](CCSC)NC(=O)C1=C(C=C(C=C1)NC[C@H](CS)N)C2=CC=CC=C2
How it was run: as §1

[11] = compound: COC1=CC=C(C=C1)CN2C=CC3=C2C=C(C=C3)C(=O)NO
How it was run: as §1

[12] = compound: CON(C)C(=O)N1N=C(c2cc(F)ccc2F)S[C@@]1(CCCN)c1ccccc1 [filanesib]
How it was run: as §1

[13] = compound: CO[C@H]1C[C@@H]2CC[C@@H](C)[C@@](O)(O2)C(=O)C(=O)N2CCCC[C@H]2C(=O)O[C@H]([C@H](C)C[C@@H]2CC[C@H](n3cnnn3)[C@H](OC)C2)CC(=O)[C@H](C)/C=C(\C)[C@@H](O)[C@@H](OC)C(=O)[C@H](C)C[C@H](C)/C=C/C=C/C=C/1C [zotarolimus]
How it was run: as §1

[14] = compound: COc1cc(C(=O)O)ccc1NC(=O)[C@@H]1N[C@@H](CC(C)(C)C)[C@](C#N)(c2ccc(Cl)cc2F)[C@H]1c1cccc(Cl)c1F [idasanutlin]
How it was run: as §1

[15] = compound: COc1cc(Nc2ncc3c(n2)-c2ccc(Cl)cc2C(c2c(F)cccc2OC)=NC3)ccc1C(=O)O [alisertib]
How it was run: as §1

[16] = compound: COc1cc2nc(-c3cc(F)ccc3O)nc(N[C@@H]3CNC[C@H]3C(C)(C)O)c2cc1OC
How it was run: as §1

[17] = compound: COc1cc2ncnc(Nc3ccc(F)c(Cl)c3)c2cc1OCCCN1CCOCC1 [gefitinib]
How it was run: as §1

[18] = compound: COc1cccc2cc(-c3nc([C@H]4CC[C@H](C(=O)O)CC4)n4ncnc(N)c34)[nH]c12
How it was run: as §1

[19] = compound: CS(=O)(=O)CCNCc1ccc(-c2ccc3ncnc(Nc4ccc(OCc5cccc(F)c5)c(Cl)c4)c3c2)o1 [lapatinib]
How it was run: as §1

[20] = compound: CS(=O)(=O)N1CCN(Cc2cc3nc(-c4cccc5[nH]ncc45)nc(N4CCOCC4)c3s2)CC1 [pictilisib]
How it was run: as §1

Measured: log2 fold change

TOMM22 (UniProt Q9NS69)
inactive: [1] 0.073 | [2] 0.016 | [3] 0.03 | [4] -0.039 | [5] -0.018 | [6] -0.053 | [7] -0.044 | [8] -0.045 | [9] -0.007 | [10] 0.02 | [11] -0.021 | [12] 0.042 | [13] 0.064 | [14] 0.06 | [15] -0.049 | [16] -0.106 | [17] 0.063 | [18] 0.056 | [19] -0.026 | [20] 0.025

TRMT1 (UniProt Q9NXH9)
inactive: [1] 0.031 | [2] 0.015 | [3] 0.016 | [4] -0.036 | [5] -0.033 | [6] 0.004 | [7] -0.038 | [8] -0.021 | [9] -0.03 | [10] 0.007 | [11] -0.038 | [12] -0.035 | [13] -0.012 | [14] -0.02 | [15] -0.082 | [16] -0.008 | [17] -0.005 | [18] 0.026 | [19] 0 | [20] -0.003

TOMM34 (UniProt Q15785)
inactive: [1] -0.11 | [2] -0.156 | [3] -0.043 | [4] 0.042 | [5] -0.068 | [6] -0.047 | [7] 0.097 | [8] 0.034 | [9] 0.076 | [10] -0.116 | [11] 0.014 | [12] -0.007 | [13] -0.013 | [14] -0.002 | [15] -0.008 | [16] 0.063 | [17] 0.011 | [18] -0.04 | [19] -0.052 | [20] 0.169

TRAPPC12 (UniProt Q8WVT3)
inactive: [1] -0.095 | [2] -0.073 | [3] -0.105 | [4] 0.034 | [5] -0.044 | [6] -0.039 | [7] 0.033 | [8] -0.003 | [9] -0.051 | [10] -0.009 | [11] 0.032 | [12] 0.05 | [13] 0.056 | [14] 0.031 | [15] 0.058 | [16] 0.004 | [17] 0.045 | [18] -0.072 | [19] 0.027 | [20] -0.002

TPT1 (UniProt P13693)
inactive: [1] -0.013 | [2] -0.044 | [3] -0.049 | [4] 0.036 | [5] 0.032 | [6] -0.069 | [7] 0.001 | [8] 0.042 | [9] -0.029 | [10] -0.015 | [11] 0.036 | [12] -0.089 | [13] 0.016 | [14] -0.032 | [15] 0.018 | [16] -0.016 | [17] -0.014 | [18] -0.014 | [19] 0.01 | [20] 0.036

TPM4, A0A2R8Y5V9
inactive: [1] 0.024 | [2] 0.008 | [3] 0.018 | [4] -0.004 | [5] -0.035 | [6] -0.061 | [7] -0.056 | [8] -0.076 | [9] -0.048 | [10] 0.016 | [11] -0.02 | [12] -0.041 | [13] -0.037 | [14] -0.012 | [15] -0.044 | [16] 0.039 | [17] 0.04 | [18] 0.074 | [19] 0.067 | [20] 0.012

2 consecutive entries already listed, for reference:
TPT1 (UniProt P13693)
inactive: [1] -0.013 | [2] -0.044 | [3] -0.049 | [4] 0.036 | [5] 0.032 | [6] -0.069 | [7] 0.001 | [8] 0.042 | [9] -0.029 | [10] -0.015 | [11] 0.036 | [12] -0.089 | [13] 0.016 | [14] -0.032 | [15] 0.018 | [16] -0.016 | [17] -0.014 | [18] -0.014 | [19] 0.01 | [20] 0.036

TPM4, A0A2R8Y5V9
inactive: [1] 0.024 | [2] 0.008 | [3] 0.018 | [4] -0.004 | [5] -0.035 | [6] -0.061 | [7] -0.056 | [8] -0.076 | [9] -0.048 | [10] 0.016 | [11] -0.02 | [12] -0.041 | [13] -0.037 | [14] -0.012 | [15] -0.044 | [16] 0.039 | [17] 0.04 | [18] 0.074 | [19] 0.067 | [20] 0.012

The results go on:

TRIAP1 (UniProt O43715)
inactive: [1] -0.07 | [2] 0.024 | [3] -0.126 | [4] 0.029 | [5] -0.057 | [6] 0.069 | [7] -0.021 | [8] -0.014 | [9] -0.155 | [10] -0.036 | [11] -0.049 | [12] 0.014 | [13] -0.014 | [14] -0.091 | [15] -0.063 | [16] -0.065 | [17] 0.017 | [18] 0.032 | [19] -0.103 | [20] -0.055

TRAF2 (UniProt Q12933)
inactive: [1] 0.011 | [2] 0.009 | [3] -0.01 | [4] -0.013 | [5] 0.019 | [6] -0.021 | [7] -0.095 | [8] -0.004 | [9] -0.037 | [10] -0.014 | [11] 0.015 | [12] -0.026 | [13] 0.015 | [14] -0.027 | [15] 0.013 | [16] 0.044 | [17] 0.042 | [18] 0.023 | [19] -0.009 | [20] 0.04

TPM4 isoform 2 (UniProt P67936)
inactive: [1] -0.023 | [2] 0.033 | [3] 0.058 | [4] -0.015 | [5] 0.014 | [6] 0 | [7] -0.07 | [8] 0.049 | [9] -0.081 | [10] -0.061 | [11] -0.036 | [12] -0.125 | [13] 0.006 | [14] -0.132 | [15] -0.005 | [16] -0.237 | [17] 0.058 | [18] 0.021 | [19] 0.211 | [20] 0.035

TOR4A (UniProt Q9NXH8)
inactive: [1] -0.095 | [2] -0.151 | [3] 0.116 | [4] 0.057 | [5] 0.018 | [6] 0.032 | [7] 0.16 | [8] 0.141 | [9] 0.064 | [10] -0.073 | [11] 0.106 | [12] 0.129 | [13] 0.053 | [14] 0.05 | [15] -0.174 | [16] 0.009 | [17] 0.018 | [18] -0.076 | [19] 0.106 | [20] 0.009

TRNT1 (UniProt Q96Q11)
inactive: [1] 0.01 | [2] 0.04 | [3] -0.007 | [4] -0.028 | [5] -0.032 | [6] -0.003 | [7] 0.056 | [8] -0.009 | [9] -0.01 | [10] -0.005 | [11] 0.04 | [12] 0.023 | [13] -0.017 | [14] -0.078 | [15] -0.025 | [16] 0.068 | [17] -0.028 | [18] 0.064 | [19] 0.01 | [20] 0.043

TSC22D4 (UniProt Q9Y3Q8)
inactive: [1] 0.018 | [2] 0.01 | [3] -0.053 | [4] -0.001 | [5] 0.003 | [6] -0.002 | [7] 0.004 | [8] 0.033 | [9] -0.039 | [10] 0 | [11] -0.029 | [12] -0.129 | [13] 0.02 | [14] 0.031 | [15] -0.012 | [16] 0.054 | [17] 0.021 | [18] 0.006 | [19] 0.002 | [20] 0.007

TRAFD1 (UniProt O14545)
inactive: [1] 0.09 | [2] 0.028 | [3] -0.057 | [4] 0.004 | [5] -0.032 | [6] 0.002 | [7] 0.01 | [8] -0.02 | [9] -0.02 | [10] 0.054 | [11] 0.076 | [12] -0.019 | [13] -0.009 | [14] 0.021 | [15] -0.042 | [16] -0.06 | [17] -0.026 | [18] -0.01 | [19] 0.021 | [20] -0.014

TRAPPC10 (UniProt P48553)
inactive: [1] -0.01 | [2] -0.015 | [3] -0.05 | [4] 0.065 | [5] -0.001 | [6] -0.062 | [7] 0.037 | [8] 0.043 | [9] 0.023 | [10] 0.017 | [11] -0.031 | [12] 0.022 | [13] 0.029 | [14] -0.08 | [15] -0.029 | [16] 0.032 | [17] 0.02 | [18] 0.054 | [19] 0.071 | [20] -0.093

TRIM25 (UniProt Q14258)
inactive: [1] -0.084 | [2] -0.112 | [3] 0.077 | [4] 0.027 | [5] 0.042 | [6] 0.133 | [7] 0.33 | [8] 0.066 | [9] 0.144 | [10] -0.092 | [11] 0.004 | [12] 0.353 | [13] 0.06 | [14] 0.127 | [15] -0.016 | [16] 0.12 | [17] 0.033 | [18] -0.159 | [19] 0.043 | [20] -0.062

TRIR (UniProt Q9BQ61)
inactive: [1] 0.019 | [2] 0.039 | [3] 0.022 | [4] 0.023 | [5] -0.05 | [6] 0.009 | [7] -0.01 | [8] -0.044 | [9] -0.046 | [10] 0.09 | [11] 0.013 | [12] 0.034 | [13] -0.019 | [14] 0.053 | [15] -0.02 | [16] 0.074 | [17] 0.016 | [18] 0.049 | [19] -0.041 | [20] -0.01
